Where a name gives a salt, the structure may show the parent alone. Read-outs that look alike come from different tables or passages of the source.
Experiments:
[1] = rabbit
[2] = horse
[3] = male, bovine, pH 7.4

Structure (SMILES) | lag T [1] [h] | APC ([1]; 72 h) [cm/s × 10^−8] | Flux ([1]; 72 h) [μg/cm^2/hr] | lag T [2] [h] | APC ([2]; 72 h) [cm/s × 10^−8] | Flux ([2]; 72 h) [μg/cm^2/hr] | Flux ([3]; 58 h) [μg/cm^2/hr] | APC ([3]; 72 h) [cm/s × 10^−8] | Flux ([3]; 72 h) [μg/cm^2/hr] | lag T [3] [h] | Flux ([1]; 58 h) [μg/cm^2/hr] | Flux ([2]; 58 h) [μg/cm^2/hr]
O=C(O)COCCN1CCN(C(c2ccccc2)c2ccc(Cl)cc2)CC1 (stereo not drawn) [Cetirizine, Cetirizine 2HCl] | 10.3 | 4.99 | 4.61 | 8.83 | 4.78 | 4.41 | 77.9±14.5 | 85.8 | 77.9 | 2.61 | – | –
CN(C)CCOC(c1ccccc1)c1ccccc1 [Diphenhydramine, Diphenhydramine HCl] | 13.6 | 46.3 | 41.5 | – | 28.5 | 25.3 | 95.1±33.1 | 61.9 | 95.1 | 0.72 | 41.47±10.18 | 25.3±1.9

— patent US20160008471A1, “TRANSDERMAL FORMULATIONS” (priority 2013, published 2016)
